Reference: patent US12509438B2, “Pyrazole derivative” (Aptabio Therapeutics Inc., priority 2020, dated 2025)
Some entries share one result that the patent states for a list of compounds. Some ranges recur; such a range may be that of the whole group of compounds.

Tested on: αSMA
Test: Expression of αSMA induced by TGF-β1 in ARPE19 cells (immunocytochemistry)
Type: cell-based, human
Conditions: compounds 5 μM, TGF-β1 (5 μM), FIG. 2
From the text: In order to confirm whether the synthetic example compound of the present invention affects differentiation of fibroblasts into myofibroblasts, the inhibitory effect of the synthetic example compound for increasing expression of αSMA (a biomarker for confirming differentiation into myofibroblasts) induced by TGF-β1 for HL-60 cells (Korean Cell Line Bank), HFF-1 (human foreskin fibroblast, ATCC), NHLF (normal human lung fibroblast, Lonza), LX-2 (human hepatic stellate cells, Sigma), ARPE19 (human retinal pigment epithelial cell, ATCC), KEL-FIB (Keloid fibroblast, ATCC) cells was to be observed.
Each cell was suspended in a DMEM medium comprising 10% FBS and aliquoted on a 4-well chamber slide (Nunc) at a concentration of 1×10^4 cells/well, and the synthetic example compound and TGF-β1(TGF 131, TGF-β are all same meanings) were treated to prepare cells to be used for confirmation of αSMA expression. The confirmation of αSMA expression in the prepared cells was performed by immunocytochemistry as follows. After performing fixation with 4% paraformaldehyde for 10 minutes and permeabilization using 0.1% Triton x-100 for the cells, the process of treating a primary antibody (anti-αSMA Ab, 1:200, at 4° C. for 16 hours) and a secondary antibody (Alexa-594 conjugated Ab, 1:800, at a room temperature for 1 hour) against αSMA was progressed sequentially, and then the level of expression of αSMA was observed by using a fluorescence microscope.
FIG. 2 is observing the effect of treating various synthetic example compounds (5 μM) after inducing αSMA expression by treatment of TGF-β1 (5 μM) to ARPE19 cells.

Row | SMILES | effect of inhibiting αSMA expression
1 | Oc1c2c(nn1-c1ccccn1)CN(Cc1ccccc1)CC2 [Synthetic example 3, 6-benzyl-2-(pyridin-2-yl)-4,5,6,7-tetrahydro-2H-pyrazolo[3,4-c]pyridin-3-ol] | 35%-70%
2 | N#Cc1ccc(CN2CCc3c(nn(-c4ccccn4)c3O)C2)cc1 [Synthetic example 8, 4-((3-hydroxy-2-(pyridin-2-yl)-2,4,5,7-tetrahydro-6H-pyrazolo[3,4-c]pyridin-6-yl)methyl)benzonitrile] | 35%-70%
3 | Oc1c2c(nn1-c1ccccn1)CN(Cc1cc(F)cc(F)c1)CC2 [Synthetic example 9, 6-(3,5-difluorobenzyl)-2-(pyridin-2-yl)-4,5,6,7-tetrahydro-2H-pyrazolo[3,4-c]pyridin-3-ol] | 35%-70%
4 | O=S(=O)(c1ccccc1)N1CCc2c(nn(-c3ccccn3)c2O)C1 [Synthetic example 26, 6-(phenylsulfonyl)-2-(pyridin-2-yl)-4,5,6,7-tetrahydro-2H-pyrazolo[3,4-c]pyridin-3-ol] | 35%-70%
